The series in a line: Composition of amniotic fluid cell-derived ECM by mass spectrometry (total spectra count).
The mark [1] stands for this setting: protein component found by mass spectrometry in amniotic fluid cell-derived ECM Matrix A (Example 1).
Where [2] appears, read: protein component found by mass spectrometry in amniotic fluid cell-derived ECM Matrix B (Example 1).
The mark [3] stands for this setting: protein component found by mass spectrometry in amniotic fluid cell-derived ECM Matrix C (Example 1).
Where [4] appears, read: protein component found by mass spectrometry in amniotic fluid cell-derived ECM Matrix D (Example 1).
The mark [5] stands for this setting: amniotic fluid cell-derived ECM Matrix A, mass spectrometry, label = protein component.
Where [6] appears, read: amniotic fluid cell-derived ECM Matrix B, mass spectrometry, label = protein component.
Where [7] appears, read: amniotic fluid cell-derived ECM Matrix C, mass spectrometry, label = protein component.
The mark [8] stands for this setting: amniotic fluid cell-derived ECM Matrix D, mass spectrometry, label = protein component.

In the case of 14-3-3 protein epsilon, the “Total Spectra Count Matrix A” value under setting [1] came out at 15. Also, under setting [2], the “Total Spectra Count Matrix B” value is given as 26. Also, the “Total Spectra Count Matrix C” value under setting [3] amounted to 3. Also, under setting [4], the “Total Spectra Count Matrix D” value is on record as 16.
Turning to 14-3-3 protein zeta/delta, under setting [1], the “Total Spectra Count Matrix A” value was 16. For the same substance, the “Total Spectra Count Matrix B” value under setting [2] is listed as 35. In addition, the “Total Spectra Count Matrix C” value under setting [3] is recorded as 4. Besides, the “Total Spectra Count Matrix D” value under setting [4] was determined as 19.
For “ATP-dependent 6-phosphofructokinase, platelet type”, the “Total Spectra Count Matrix A” value under setting [1] came to 20. The “Total Spectra Count Matrix B” value under setting [2] amounted to 9. The “Total Spectra Count Matrix C” value under setting [3] worked out at 0. The “Total Spectra Count Matrix D” value under setting [4] worked out at 18.
As to ATP-dependent RNA helicase A, the “Total Spectra Count Matrix A” value under setting [1] amounted to 14. Further, under setting [2], the “Total Spectra Count Matrix B” value worked out at 25. Also, under setting [3], the “Total Spectra Count Matrix C” value was found to be 1. Moreover, the “Total Spectra Count Matrix D” value under setting [4] came to 9.
For the substance Alpha-enolase, the “Total Spectra Count Matrix A” value under setting [1] was determined as 30. Moreover, the “Total Spectra Count Matrix B” value under setting [2] was found to be 61. Also, under setting [3], the “Total Spectra Count Matrix C” value is 3. For the same substance, under setting [4], the “Total Spectra Count Matrix D” value came out at 26.
As for “Basement membrane-specific heparan sulfate proteoglycan core protein”, the “Total Spectra Count Matrix A” value under setting [1] amounted to 202. The “Total Spectra Count Matrix B” value under setting [2] is recorded as 0. In addition, the “Total Spectra Count Matrix C” value under setting [3] is 402. For the same substance, the “Total Spectra Count Matrix D” value under setting [4] was determined as 338.
Regarding Cofilin-1, the “Total Spectra Count Matrix A” value under setting [1] amounted to 14. Also, the “Total Spectra Count Matrix B” value under setting [2] is given as 0. Further, the “Total Spectra Count Matrix C” value under setting [3] came out at 4. For the same substance, the “Total Spectra Count Matrix D” value under setting [4] is 11.
Take “DNA-dependent protein kinase catalytic subunit”: the “Total Spectra Count Matrix A” value under setting [1] was found to be 33. Moreover, under setting [2], the “Total Spectra Count Matrix B” value amounted to 10. Besides, the “Total Spectra Count Matrix C” value under setting [3] came out at 0. Under setting [4], the “Total Spectra Count Matrix D” value stood at 5.
With Endoplasmin, the “Total Spectra Count Matrix A” value under setting [1] amounted to 29. Moreover, the “Total Spectra Count Matrix B” value under setting [2] was found to be 71. Further, the “Total Spectra Count Matrix C” value under setting [3] is 3. Further, the “Total Spectra Count Matrix D” value under setting [4] was found to be 22.
With Eukaryotic initiation factor 4A-I, the “Total Spectra Count Matrix A” value under setting [1] is 15. For the same substance, under setting [2], the “Total Spectra Count Matrix B” value is reported as 28. For the same substance, the “Total Spectra Count Matrix C” value under setting [3] is 2. Further, the “Total Spectra Count Matrix D” value under setting [4] is recorded as 8.
Turning to FACT complex subunit SPT16, the “Total Spectra Count Matrix A” value under setting [5] came to 0. The “Total Spectra Count Matrix B” value under setting [6] is given as 7. For the same substance, the “Total Spectra Count Matrix C” value under setting [7] was found to be 0. For the same substance, under setting [8], the “Total Spectra Count Matrix D” value is listed as 0.
With Fibronectin, under setting [1], the “Total Spectra Count Matrix A” value worked out at 802. For the same substance, the “Total Spectra Count Matrix B” value under setting [2] is listed as 13851. Moreover, the “Total Spectra Count Matrix C” value under setting [3] is given as 1138. Besides, under setting [4], the “Total Spectra Count Matrix D” value is listed as 781.
For the substance Fibrous sheath-interacting protein 2, the “Total Spectra Count Matrix A” value under setting [5] is 0. Also, the “Total Spectra Count Matrix B” value under setting [6] is reported as 0. Further, under setting [7], the “Total Spectra Count Matrix C” value stood at 2. The “Total Spectra Count Matrix D” value under setting [8] turned out to be 1.
On to Filaggrin, for which the “Total Spectra Count Matrix A” value under setting [5] stood at 0. Further, the “Total Spectra Count Matrix B” value under setting [6] worked out at 3. Further, the “Total Spectra Count Matrix C” value under setting [7] was 0. In addition, under setting [8], the “Total Spectra Count Matrix D” value is 0.
Take Filaggrin-2: the “Total Spectra Count Matrix A” value under setting [5] is given as 0. The “Total Spectra Count Matrix B” value under setting [6] was 2. Moreover, under setting [7], the “Total Spectra Count Matrix C” value is 0. For the same substance, the “Total Spectra Count Matrix D” value under setting [8] is 0.
Turning to Galectin-3, the “Total Spectra Count Matrix A” value under setting [5] is on record as 0. In addition, the “Total Spectra Count Matrix B” value under setting [6] stood at 39. The “Total Spectra Count Matrix C” value under setting [7] stood at 0. Also, under setting [8], the “Total Spectra Count Matrix D” value was 0.
As for Galectin-8, under setting [5], the “Total Spectra Count Matrix A” value is listed as 0. Further, the “Total Spectra Count Matrix B” value under setting [6] was 5. In addition, the “Total Spectra Count Matrix C” value under setting [7] amounted to 2. Further, the “Total Spectra Count Matrix D” value under setting [8] amounted to 0.
Consider “Glycylpeptide N-tetradecanoyltransferase 2”, for which the “Total Spectra Count Matrix A” value under setting [5] is listed as 0. For the same substance, the “Total Spectra Count Matrix B” value under setting [6] was 2. Under setting [7], the “Total Spectra Count Matrix C” value was determined as 0. Moreover, the “Total Spectra Count Matrix D” value under setting [8] worked out at 0.
On to Heat shock-related 70 kDa protein 2, for which, under setting [5], the “Total Spectra Count Matrix A” value turned out to be 0. Under setting [6], the “Total Spectra Count Matrix B” value is given as 0. Also, under setting [7], the “Total Spectra Count Matrix C” value was determined as 0. Besides, the “Total Spectra Count Matrix D” value under setting [8] came out at 24.
Consider Hemicentin-2, for which the “Total Spectra Count Matrix A” value under setting [5] came to 0. Also, under setting [6], the “Total Spectra Count Matrix B” value stood at 0. Besides, under setting [7], the “Total Spectra Count Matrix C” value came to 0. In addition, the “Total Spectra Count Matrix D” value under setting [8] is reported as 0.
For “Heterogeneous nuclear ribonucleoprotein K”, the “Total Spectra Count Matrix A” value under setting [1] was found to be 26. For the same substance, the “Total Spectra Count Matrix B” value under setting [2] came out at 28. In addition, the “Total Spectra Count Matrix C” value under setting [3] was 3. Besides, the “Total Spectra Count Matrix D” value under setting [4] worked out at 26.
As to Homeobox protein Hox-B3, the “Total Spectra Count Matrix A” value under setting [5] amounted to 0. Under setting [6], the “Total Spectra Count Matrix B” value was determined as 5. For the same substance, the “Total Spectra Count Matrix C” value under setting [7] worked out at 0. Moreover, under setting [8], the “Total Spectra Count Matrix D” value was 0.
Consider Integrin beta-1, for which the “Total Spectra Count Matrix A” value under setting [1] was determined as 19. Besides, the “Total Spectra Count Matrix B” value under setting [2] is given as 16. Further, the “Total Spectra Count Matrix C” value under setting [3] was 4. Further, the “Total Spectra Count Matrix D” value under setting [4] was found to be 18.
Take “Isocitrate dehydrogenase [NADP] cytoplasmic”: the “Total Spectra Count Matrix A” value under setting [5] was determined as 0. Besides, under setting [6], the “Total Spectra Count Matrix B” value came out at 7. The “Total Spectra Count Matrix C” value under setting [7] is 0. Moreover, the “Total Spectra Count Matrix D” value under setting [8] stood at 0.
Consider Laminin subunit beta-1, for which the “Total Spectra Count Matrix A” value under setting [1] amounted to 28. For the same substance, the “Total Spectra Count Matrix B” value under setting [2] was found to be 30. Besides, the “Total Spectra Count Matrix C” value under setting [3] came out at 4. Also, the “Total Spectra Count Matrix D” value under setting [4] is 11.
Taken in the same sequence, the figures for Laminin subunit gamma-1 were 18, 48, 0 and 6.
As for “Latent-transforming growth factor beta-binding protein 2”, under setting [5], the “Total Spectra Count Matrix A” value turned out to be 0. For the same substance, under setting [6], the “Total Spectra Count Matrix B” value is given as 23. In addition, under setting [7], the “Total Spectra Count Matrix C” value is 0. Under setting [8], the “Total Spectra Count Matrix D” value turned out to be 0.
Regarding “Lipoamide acyltransferase component of branched-chain alpha-keto acid dehydrogenase complex, mitochondrial”, the “Total Spectra Count Matrix A” value under setting [5] is listed as 0. Also, under setting [6], the “Total Spectra Count Matrix B” value turned out to be 6. Moreover, the “Total Spectra Count Matrix C” value under setting [7] was determined as 4. For the same substance, under setting [8], the “Total Spectra Count Matrix D” value was determined as 8.
With “Low-density lipoprotein receptor-related protein 1B”, the “Total Spectra Count Matrix A” value under setting [5] came to 0. Moreover, under setting [6], the “Total Spectra Count Matrix B” value came to 2. Further, under setting [7], the “Total Spectra Count Matrix C” value is 0. Further, the “Total Spectra Count Matrix D” value under setting [8] stood at 0.
With “Low-density lipoprotein receptor-related protein 2”, under setting [5], the “Total Spectra Count Matrix A” value amounted to 0. Also, the “Total Spectra Count Matrix B” value under setting [6] is 0. The “Total Spectra Count Matrix C” value under setting [7] turned out to be 0. The “Total Spectra Count Matrix D” value under setting [8] is 2.

Source of the values: patent US11220671B2, “Methods for the maturation of cardiomyocytes on amniotic fluid cell-derived ECM, cellular constructs, and uses for cardiotoxicity and proarrhythmic screening of drug compounds” (STEMBIOSYS, INC., priority 2019, dated 2022).
